Where “and” joins values, the source holds several entries; their conditions need not be identical. Identical values can stand only once. The source gives many values for each of these; only a part stands here.
Columns and labels:
[1] = Pharmacokinetic profiles after p.o., i.p. and i.v. administration; format: in vivo, Wistar rats; details: plasma, individual rats
Method: On the same day as C1 administration, the rats (three groups, n = 6) were previously cannulated for compound administration by the p.o., i.p., and i.v. routes. A 24 G catheter was placed in the right lateral tail vein for blood collection. A first group of rats received a single dose of 50 mg/kg applied p.o. with a 20 G gavage needle. A dose of 75 mg/kg of C1 was injected i.p. into the rats in the second group. A single dose of 50 mg/kg was given i.v. to the third group by means of another catheter previously placed in the left lateral tail vein. The doses used in this study were selected based on previous pharmacokinetic studies reported in rats for 5-ASA [60] or for derivatives of this compound [61]. Animals were provided with the standard diet 4 h after dosing. […] The volume of blood removed was supplemented with an equal volume of 0.9% sodium chloride solution. The blood samples were centrifuged at 8000 rpm for 15 min to harvest 100 μL of plasma.
Plasma samples were processed immediately. Briefly, 450 µL of acetonitrile was added to 100 µL of plasma and vortexed for 5 min. Subsequently, 450 µL of methanol was added, and the sample was vortexed again, followed by centrifugation to precipitate the proteins. Finally, 10 µL of the supernatant were used for evaluation of the plasma concentration of C1 by RP-HPLC with the UV detection method, previously validated for the pharmacokinetic and complementary assays herein performed.
The plasma concentration–time data were plotted. […] Pharmacokinetic parameters of C1 were calculated on Kinetica 5.0 software (Adept Scientific Ltd), including the maximum plasma concentration (Cmax), time to maximum plasma concentration (tmax), elimination half-life (t1/2e), the area under the plasma concentration-time curve from time zero to the last measurable concentration (AUC0-t), the area under the plasma concentration-time curve from time zero to infinity (AUCtot), mean residence time (MRT), clearance (CL), and apparent volume of distribution (Vd).

[2] = Distribution of C1 in tissues; format: in vivo, Wistar rats; details: p.o. 75 mg/kg, individual rats
Method: Fifteen male Wistar rats were distributed in five groups (n = 3) and rats were orally administered C1 at a single dose of 75 mg/kg. Subsequently, a group of animals was sacrificed (n = 3) at 10, 30, 90, 180, and 360 min. […] All tissues and organs were weighed on an analytical balance and immediately processed. Each tissue sample was homogenized with saline solution in a 1:3 (wt/v) ratio. The preparation process for analysis was the same as described above for plasma samples [57] (File S8).

O=C(/C=C(/Br)C(=O)O)Nc1ccc(O)c(C(=O)O)c1 [Compound C1, 5-{[(2E)-3-bromo-3-carboxyprop-2-enoyl]amino}-2-hydroxybenzoic acid]
Concentration (µg/mL), Rat 1-6 ([1]; i.g. (p.o.) 50 mg/kg, 5 min, 50 mg/kg): 2.23 µg/mL and 1.07 µg/mL and 2.65 µg/mL and 2.43 µg/mL and 2.84 µg/mL and 1.84 µg/mL | Concentration (µg/mL), Rat 1-6 ([1]; i.g. (p.o.) 50 mg/kg, 10 min, 50 mg/kg): 2.41 µg/mL and 1.06 µg/mL and 2.91 µg/mL and 2.57 µg/mL and 2.53 µg/mL and 1.81 µg/mL | Concentration (µg/mL), Rat 1-6 ([1]; i.g. (p.o.) 50 mg/kg, 20 min, 50 mg/kg): 1.98 µg/mL and 2.91 µg/mL and 2.71 µg/mL and 3.24 µg/mL and 2.26 µg/mL | Concentration (µg/mL), Rat 1-6 ([1]; i.g. (p.o.) 50 mg/kg, 30 min, 50 mg/kg): 2.63 µg/mL and 1.64 µg/mL and 2.22 µg/mL and 2.82 µg/mL and 3.67 µg/mL and 1.75 µg/mL | Concentration (µg/mL), Rat 1-6 ([1]; i.g. (p.o.) 50 mg/kg, 45 min, 50 mg/kg): 1.76 µg/mL and 1.27 µg/mL and 2.20 µg/mL and 2.25 µg/mL and 3.51 µg/mL and 1.69 µg/mL | Concentration (µg/mL), Rat 1-6 ([1]; i.g. (p.o.) 50 mg/kg, 60 min, 50 mg/kg): 1.97 µg/mL and 1.30 µg/mL and 2.11 µg/mL and 2.26 µg/mL and 3.65 µg/mL and 1.58 µg/mL | Concentration (µg/mL), Rat 1-6 ([1]; i.g. (p.o.) 50 mg/kg, 90 min, 50 mg/kg): 0.86 µg/mL and 1.02 µg/mL and 1.49 µg/mL and 1.86 µg/mL and 4.54 µg/mL and 1.32 µg/mL | Concentration (µg/mL), Rat 1-6 ([1]; i.g. (p.o.) 50 mg/kg, 120 min, 50 mg/kg): 0.58 µg/mL and 0.72 µg/mL and 1.96 µg/mL and 1.41 µg/mL and 3.18 µg/mL and 1.20 µg/mL | Concentration (µg/mL), Rat 1-6 ([1]; i.g. (p.o.) 50 mg/kg, 180 min, 50 mg/kg): 0.00 µg/mL and 0.72 µg/mL and 0.67 µg/mL and 1.09 µg/mL and 2.26 µg/mL and 1.22 µg/mL | Concentration (µg/mL), Rat 1-6 ([1]; i.g. (p.o.) 50 mg/kg, 240 min, 50 mg/kg): 0.00 µg/mL (3×) and 1.10 µg/mL and 1.74 µg/mL and 1.15 µg/mL | Concentration (µg/mL), Rat 1-6 ([1]; i.g. (p.o.) 50 mg/kg, 300 min, 50 mg/kg): 0.00 µg/mL (3×) and 0.92 µg/mL and 1.45 µg/mL and 0.62 µg/mL | Concentration (µg/mL), Rat 1-6 ([1]; i.g. (p.o.) 50 mg/kg, 360 min, 50 mg/kg): 0.00 µg/mL (4×) and 0.91 µg/mL and 1.13 µg/mL | Concentration (µg/mL), Rat 1-6 ([1]; i.g. (p.o.) 50 mg/kg, 540 min, 50 mg/kg): 0.00 µg/mL (5×) and 0.82 µg/mL | Concentration (µg/mL), Rat 1-6 ([1]; i.g. (p.o.) 50 mg/kg, 600 min): 0.00 µg/mL | Concentration (µg/mL), Rat 1-6 ([1]; i.g. (p.o.) 50 mg/kg, 720 min): 0.00 µg/mL | Concentration (µg/mL), Rat 1-6 ([1]; i.p. 75 mg/kg, 5 min, 75 mg/kg): 19.30 µg/mL and 7.13 µg/mL and 18.64 µg/mL and 19.28 µg/mL and 27.99 µg/mL and 6.53 µg/mL | Concentration (µg/mL), Rat 1-6 ([1]; i.p. 75 mg/kg, 10 min, 75 mg/kg): 1.87 µg/mL and 10.07 µg/mL and 25.59 µg/mL and 23.48 µg/mL and 28.46 µg/mL and 16.26 µg/mL | Concentration (µg/mL), Rat 1-6 ([1]; i.p. 75 mg/kg, 20 min, 75 mg/kg): 11.09 µg/mL and 11.74 µg/mL and 26.19 µg/mL and 23.50 µg/mL and 27.24 µg/mL and 19.13 µg/mL | Concentration (µg/mL), Rat 1-6 ([1]; i.p. 75 mg/kg, 30 min, 75 mg/kg): 14.88 µg/mL and 11.12 µg/mL and 27.78 µg/mL and 24.20 µg/mL and 24.44 µg/mL and 16.88 µg/mL | Concentration (µg/mL), Rat 1-6 ([1]; i.p. 75 mg/kg, 45 min, 75 mg/kg): 19.20 µg/mL and 12.48 µg/mL and 25.65 µg/mL and 17.91 µg/mL and 19.27 µg/mL and 11.96 µg/mL | Concentration (µg/mL), Rat 1-6 ([1]; i.p. 75 mg/kg, 60 min, 75 mg/kg): 19.81 µg/mL and 12.19 µg/mL and 20.94 µg/mL and 14.34 µg/mL and 14.91 µg/mL and 8.72 µg/mL | Concentration (µg/mL), Rat 1-6 ([1]; i.p. 75 mg/kg, 90 min, 75 mg/kg): 15.76 µg/mL and 11.35 µg/mL and 14.35 µg/mL and 10.26 µg/mL and 9.01 µg/mL and 6.43 µg/mL | Concentration (µg/mL), Rat 1-6 ([1]; i.p. 75 mg/kg, 120 min, 75 mg/kg): 11.54 µg/mL and 12.02 µg/mL and 9.79 µg/mL and 9.54 µg/mL and 5.23 µg/mL and 5.75 µg/mL | Concentration (µg/mL), Rat 1-6 ([1]; i.p. 75 mg/kg, 180 min, 75 mg/kg): 4.99 µg/mL and 7.71 µg/mL and 5.09 µg/mL and 5.86 µg/mL and 3.06 µg/mL and 4.52 µg/mL | Concentration (µg/mL), Rat 1-6 ([1]; i.p. 75 mg/kg, 240 min, 75 mg/kg): 2.45 µg/mL and 4.34 µg/mL and 2.43 µg/mL and 3.35 µg/mL and 1.30 µg/mL and 3.21 µg/mL | Concentration (µg/mL), Rat 1-6 ([1]; i.p. 75 mg/kg, 300 min): 0.00 µg/mL | Concentration (µg/mL), Rat 1-6 ([1]; i.p. 75 mg/kg, 360 min): 0.00 µg/mL | Concentration (µg/mL), Rat 1-6 ([1]; i.p. 75 mg/kg, 540 min): 0.00 µg/mL | Concentration (µg/mL), Rat 1-6 ([1]; i.p. 75 mg/kg, 720 min): 0.00 µg/mL | Concentration (µg/mL), Rat 1-6 ([1]; i.v. 50 mg/kg, 5 min, 50 mg/kg): 9.46 µg/mL and 10.58 µg/mL and 13.45 µg/mL and 12.78 µg/mL and 6.12 µg/mL and 10.60 µg/mL | Concentration (µg/mL), Rat 1-6 ([1]; i.v. 50 mg/kg, 10 min, 50 mg/kg): 6.51 µg/mL and 8.18 µg/mL and 10.41 µg/mL and 9.22 µg/mL and 4.69 µg/mL and 7.90 µg/mL | Concentration (µg/mL), Rat 1-6 ([1]; i.v. 50 mg/kg, 20 min, 50 mg/kg): 5.61 µg/mL and 4.71 µg/mL and 7.76 µg/mL and 8.22 µg/mL and 3.57 µg/mL and 6.00 µg/mL | Concentration (µg/mL), Rat 1-6 ([1]; i.v. 50 mg/kg, 30 min, 50 mg/kg): 5.18 µg/mL and 4.54 µg/mL and 7.54 µg/mL and 6.66 µg/mL and 2.58 µg/mL and 5.30 µg/mL | Concentration (µg/mL), Rat 1-6 ([1]; i.v. 50 mg/kg, 45 min, 50 mg/kg): 4.49 µg/mL and 3.33 µg/mL and 5.77 µg/mL and 5.41 µg/mL and 1.92 µg/mL and 4.23 µg/mL | Concentration (µg/mL), Rat 1-6 ([1]; i.v. 50 mg/kg, 60 min, 50 mg/kg): 4.16 µg/mL and 4.12 µg/mL and 5.48 µg/mL and 5.26 µg/mL and 1.05 µg/mL and 4.00 µg/mL | Concentration (µg/mL), Rat 1-6 ([1]; i.v. 50 mg/kg, 90 min, 50 mg/kg): 3.20 µg/mL and 2.30 µg/mL and 5.38 µg/mL and 4.50 µg/mL and 1.00 µg/mL and 3.80 µg/mL | Concentration (µg/mL), Rat 1-6 ([1]; i.v. 50 mg/kg, 120 min, 50 mg/kg): 2.84 µg/mL and 1.19 µg/mL and 2.49 µg/mL and 2.30 µg/mL and 0.80 µg/mL and 3.40 µg/mL | Concentration (µg/mL), Rat 1-6 ([1]; i.v. 50 mg/kg, 180 min, 50 mg/kg): 1.87 µg/mL and 1.30 µg/mL and 1.80 µg/mL and 1.60 µg/mL and 0.73 µg/mL and 1.45 µg/mL | Concentration (µg/mL), Rat 1-6 ([1]; i.v. 50 mg/kg, 240 min, 50 mg/kg): 1.80 µg/mL and 1.24 µg/mL and 1.65 µg/mL and 1.50 µg/mL and 0.62 µg/mL and 1.34 µg/mL | Concentration (µg/mL), Rat 1-6 ([1]; i.v. 50 mg/kg, 300 min, 50 mg/kg): 1.29 µg/mL and 1.17 µg/mL and 1.70 µg/mL and 1.27 µg/mL and 0.51 µg/mL and 1.20 µg/mL | Concentration (µg/mL), Rat 1-6 ([1]; i.v. 50 mg/kg, 360 min, 50 mg/kg): 1.00 µg/mL and 0.90 µg/mL and 0.80 µg/mL and 0.72 µg/mL and 0.40 µg/mL and 0.71 µg/mL | Concentration (µg/mL), Rat 1-6 ([1]; i.v. 50 mg/kg, 540 min): 0.00 µg/mL | Concentration (µg/mL), Rat 1-6 ([1]; i.v. 50 mg/kg, 720 min): 0.00 µg/mL | Concentration (µg/mL) at 10 minutes, Rat 1-3 ([2]; Brain): 2.8 µg/mL and 4.3 µg/mL | Concentration (µg/mL) at 6 h, Rat 1-3 ([2]; Brain): 2.2 µg/mL | Concentration (µg/mL) at 6 h, Rat 1-3 ([2]; Colon): 2.2 µg/mL and 12.6 µg/mL and 3.2 µg/mL | Concentration (µg/mL) at 6 h, Rat 1-3 ([2]; Hearth): 3.4 µg/mL and 2.3 µg/mL | Concentration (µg/mL) at 6 h, Rat 1-3 ([2]; Kidney): 2.5 µg/mL and 5.7 µg/mL and 4.1 µg/mL | Concentration (µg/mL) at 6 h, Rat 1-3 ([2]; Liver): 2.5 µg/mL and 6.3 µg/mL and 3.6 µg/mL | Concentration (µg/mL) at 6 h, Rat 1-3 ([2]; Lung): 3.0 µg/mL and 4.3 µg/mL and 11.5 µg/mL | Concentration (µg/mL) at 10 minutes, Rat 1-3 ([2]; Muscle): 3.8 µg/mL and 5.6 µg/mL | Concentration (µg/mL) at 6 h, Rat 1-3 ([2]; Muscle): 0.551 µg/mL and 2.6 µg/mL and 4.4 µg/mL | Concentration (µg/mL) at 10 minutes, Rat 1-3 ([2]; Small intestine): 34.8 µg/mL and 19.7 µg/mL and 40.1 µg/mL | Concentration (µg/mL) at 6 h, Rat 1-3 ([2]; Small intestine): 14.1 µg/mL and 7.2 µg/mL | Concentration (µg/mL) at 6 h, Rat 1-3 ([2]; Spleen): 5.0 µg/mL and 14.0 µg/mL and 4.5 µg/mL | Concentration (µg/mL) at 6 h, Rat 1-3 ([2]; Stomach): 2.6 µg/mL and 7.4 µg/mL and 4.1 µg/mL | Concentration (µg/mL) at 10 minutes, Rat 1-3 ([2]; Testis): 13.3 µg/mL and 5.7 µg/mL and 10.7 µg/mL | Concentration (µg/mL) at 6 h, Rat 1-3 ([2]; Testis): 3.1 µg/mL and 4.1 µg/mL
